Laboratory results from patent US4189499A, “Lysine 4-allyloxy-3-chlorophenylacetate and method of its preparation” (priority 1979, dated 1980).

Assay: Extent of availability after different routes, intravenous administration as reference
Assay type: in vivo, rabbit
Details: comparison of lysine salt with acid
Description: The following pharmacological experimentation was carried out in order to estimate the comparative absorption and bioavailability through various administration routes in rabbits of Alclofenac acid and its lysine salt.

C=CCOc1ccc(CC(=O)O)cc1Cl [Alclofenac-Lysine, lysine 4-allyloxy-3-chlorophenylacetate]
F Lys. vs acid (AUC o → 4h) (P.O. 90 mg/kg, 0-4 h): < 0.01
F Lys. vs acid (AUC o → 2h) (Rectal 100 mg/kg, 0-2 h): ns
